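Plate-reader measure of the Venus reporter marking one vaccinia stage in infected cells (the cell line is not named here); read time unknown. The test concentration is not given here. Percent change in Venus reporter signal; lower (more negative) values mean stronger inhibition of that viral stage.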

Values are in %. The controls that fix the scale are not given here. Common to all entries: measured here: Venus reporter, other viral stage. Part of the compounds only, not a random draw; the main read-out is not listed here.

* C[C@H](CO)N1C[C@H](C)[C@@H](CN(C)S(=O)(=O)c2ccc(Cl)cc2)OCc2ccccc2-c2ccccc2C1=O | activity change (Venus) -37.8%
* C[C@H](O)C#Cc1ccc2c(c1)O[C@@H](CN(C)Cc1ccc(-c3ccccc3)cc1)[C@H](C)CN([C@H](C)CO)S2(=O)=O | activity change (Venus) -56.52%
* C[C@@H]1CCCCO[C@@H](CN(C)S(=O)(=O)c2ccccc2)[C@H](C)CN([C@@H](C)CO)C(=O)c2cc(NS(=O)(=O)c3cccs3)ccc2O1 | activity change (Venus) -26.08%
* C[C@@H]1CN([C@H](C)CO)C(=O)c2cc(NC(=O)NC3CCCCC3)ccc2O[C@@H](C)CCCCO[C@H]1CN(C)Cc1ccc2c(c1)OCO2 | activity change (Venus) -35.77%
* COc1ccc(S(=O)(=O)N(C)C[C@H]2OCCCC[C@@H](C)Oc3ccc(NS(=O)(=O)c4c(C)noc4C)cc3C(=O)N([C@H](C)CO)C[C@H]2C)cc1 | activity change (Venus) -41%
* C[C@@H]1CCCCO[C@@H](CN(C)CC2CCCCC2)[C@H](C)CN([C@@H](C)CO)C(=O)c2cc(NC(=O)c3ccccc3)ccc2O1 | activity change (Venus) -57.22%
* COc1cccc(S(=O)(=O)N2C[C@@H]3N[C@H](C2)C3c2ccc(-c3ccccc3C)cc2)c1 (stereo partly specified) | activity change (Venus) -43.56%
* C[C@H](CO)N1C[C@H](C)[C@H](CN(C)Cc2ccc(-c3ccccc3)cc2)Oc2c(NC(=O)Nc3ccc(C(F)(F)F)cc3)cccc2C1=O | activity change (Venus) -28.65%
* N#C[C@H]1[C@@H](c2ccc(-c3cccnc3)cc2)[C@@H](CO)N1C(=O)Nc1ccc(F)cc1 | activity change (Venus) -34.23%
* Cc1noc(C)c1S(=O)(=O)Nc1ccc2c(c1)C(=O)N([C@@H](C)CO)C[C@@H](C)[C@H](CN(C)Cc1ccc(C(F)(F)F)cc1)OCCCC[C@H](C)O2 | activity change (Venus) -91.56%
* C[C@H]1CN([C@@H](C)CO)C(=O)c2cc(NS(=O)(=O)c3ccc(Cl)cc3)ccc2O[C@H]1CN(C)Cc1ccc(Oc2ccccc2)cc1 | activity change (Venus) -32.15%
* C[C@H](CO)N1C[C@H](C)[C@H](CN(C)Cc2ccc(-c3ccccc3)cc2)Oc2ccc(NS(=O)(=O)c3ccccc3)cc2C1=O | activity change (Venus) -37.39%
* COc1ccc(-c2ccc([C@H]3[C@@H](C#N)N(C(=O)c4cccc(F)c4)[C@@H]3CO)cc2)cc1 | activity change (Venus) -24.9%
* CC(=O)N1CCCCN2[C@H](C1)[C@H](c1ccc(-c3cccc(C)c3)cc1)[C@@H]2CO | activity change (Venus) -56.84%
* COc1ccc2c3c([nH]c2c1)[C@@H](CO)N(C(=O)Nc1ccc(F)cc1)CC31CCN(S(=O)(=O)c2cccc(C)c2)CC1 | activity change (Venus) -34.52%
* COc1ccccc1S(=O)(=O)N(C)C[C@@H]1OCc2ccccc2-c2c(n(C)c3ccccc23)C(=O)N([C@@H](C)CO)C[C@H]1C | activity change (Venus) -45.43%
* COc1ccc(CN(C)C[C@@H]2OCCCC[C@H](C)Oc3ccc(NC(=O)Nc4ccc(C(F)(F)F)cc4)cc3C(=O)N([C@@H](C)CO)C[C@@H]2C)cc1 | activity change (Venus) -54.19%
* O=C(Nc1cccc(F)c1)N1CCCCN2[C@@H](CO)[C@H](c3ccc(C#Cc4cccnc4)cc3)[C@@H]2C1 | activity change (Venus) -38.01%
* C[C@@H]1CN([C@H](C)CO)S(=O)(=O)c2ccc(C#CC3CCCC3)cc2O[C@@H]1CN(C)C(=O)Cc1ccncc1 | activity change (Venus) -40.54%
* C=C1C(=O)O[C@H]2[C@@H]1CC/C(CO)=C\CC[C@@]1(C)O[C@@H]21 | activity change (Venus) -29.9%
* COc1ccccc1CNC(=O)C[C@@H]1CC[C@@H]2[C@H](COc3ccc(NC(=O)Nc4ccc(F)c(F)c4)cc3C(=O)N2C)O1 | activity change (Venus) -25.14%
* O=C(C[C@H]1CC[C@H]2[C@@H](COC[C@@H](O)CN2C(=O)Nc2ccc(Cl)c(Cl)c2)O1)NCc1ccc(Cl)cc1 | activity change (Venus) -43.43%
* C[C@@H]1CN([C@@H](C)CO)C(=O)c2c(c3ccccc3n2C)-c2ccccc2CO[C@@H]1CN(C)C(=O)CCN(C)C | activity change (Venus) -44.68%
* C[C@@H]1CN([C@H](C)CO)C(=O)c2cc(-c3cccnc3)cnc2O[C@H]1CN(C)Cc1ccc(Oc2ccccc2)cc1 | activity change (Venus) -79.18%
* C[C@H](CO)N1C[C@H](C)[C@H](CN(C)C(=O)c2cc(Cl)cc(Cl)c2)OCc2ccccc2-c2c(n(C)c3ccccc23)C1=O | activity change (Venus) -54.73%
* CC(C)NC(=O)Nc1ccc2c(c1)CC(=O)N([C@@H](C)CO)C[C@@H](C)[C@@H](CN(C)Cc1ccc(-c3ccccc3)cc1)O2 | activity change (Venus) -38.94%
* O=C(C1CCCC1)N1CC(=O)N2[C@H](CO)[C@H](c3ccc(C#Cc4cccc(F)c4)cc3)[C@@H]2C1 | activity change (Venus) -36.59%
* Cc1noc(C)c1S(=O)(=O)Nc1ccc2c(c1)C(=O)N([C@@H](C)CO)C[C@H](C)[C@H](CN(C)S(=O)(=O)c1ccc(F)cc1)OCCCC[C@H](C)O2 | activity change (Venus) -34.46%
* N#Cc1cccc(-c2ccc(C3[C@@H]4CN(S(=O)(=O)c5ccccc5F)C[C@H]3N4)cc2)c1 (stereo partly specified) | activity change (Venus) -60.87%
* COc1ccc(CN(C)C[C@@H]2OCCCC[C@H](C)Oc3ccc(NC(=O)Nc4ccc(F)cc4)cc3C(=O)N([C@H](C)CO)C[C@@H]2C)cc1 | activity change (Venus) -60.85%
* C[C@H](CO)N1C[C@H](C)[C@@H](CN(C)Cc2ccccc2)Oc2ccc(NS(=O)(=O)c3ccc(Cl)cc3)cc2CC1=O | activity change (Venus) -43.93%
* CC(C)(C)OC(=O)CC[C@]12N=C(c3ccc(OCCCO)cc3)O[C@H]1c1ccccc1CN(Cc1ccccc1)C2=O | activity change (Venus) -44.58%
* COc1ccc(S(=O)(=O)N(C)C[C@@H]2Oc3cc(C#CC4CC4)ccc3S(=O)(=O)N([C@@H](C)CO)C[C@@H]2C)cc1 | activity change (Venus) -36.71%

Repeated from the top, 3 entries:

structure,activity change (Venus) (%)
C[C@H](CO)N1C[C@H](C)[C@@H](CN(C)S(=O)(=O)c2ccc(Cl)cc2)OCc2ccccc2-c2ccccc2C1=O,-37.8
C[C@H](O)C#Cc1ccc2c(c1)O[C@@H](CN(C)Cc1ccc(-c3ccccc3)cc1)[C@H](C)CN([C@H](C)CO)S2(=O)=O,-56.52
C[C@@H]1CCCCO[C@@H](CN(C)S(=O)(=O)c2ccccc2)[C@H](C)CN([C@@H](C)CO)C(=O)c2cc(NS(=O)(=O)c3cccs3)ccc2O1,-26.08

From PubChem BioAssay record AID1053133 (Broad Institute, 2014).